Reference: PMC7910438, “The TUTase URT1 connects decapping activators and prevents the accumulation of excessively deadenylated mRNAs to avoid siRNA biogenesis” (Nature Communications, 2021)
Changes are numbered by the printed parent chain. No constants are given. Whether binding was seen depends on the method and setting. For some assays here: Binding seen in cells or lysates may run through a third protein. Some binding calls cover weakened binding; strength is not graded here. Where a sequence is shown, tags or fusion partners need not be part of it.

T1: DCP5 tagged with GFP (Arabidopsis thaliana) (UniProt Q9C658)
T1 sequence: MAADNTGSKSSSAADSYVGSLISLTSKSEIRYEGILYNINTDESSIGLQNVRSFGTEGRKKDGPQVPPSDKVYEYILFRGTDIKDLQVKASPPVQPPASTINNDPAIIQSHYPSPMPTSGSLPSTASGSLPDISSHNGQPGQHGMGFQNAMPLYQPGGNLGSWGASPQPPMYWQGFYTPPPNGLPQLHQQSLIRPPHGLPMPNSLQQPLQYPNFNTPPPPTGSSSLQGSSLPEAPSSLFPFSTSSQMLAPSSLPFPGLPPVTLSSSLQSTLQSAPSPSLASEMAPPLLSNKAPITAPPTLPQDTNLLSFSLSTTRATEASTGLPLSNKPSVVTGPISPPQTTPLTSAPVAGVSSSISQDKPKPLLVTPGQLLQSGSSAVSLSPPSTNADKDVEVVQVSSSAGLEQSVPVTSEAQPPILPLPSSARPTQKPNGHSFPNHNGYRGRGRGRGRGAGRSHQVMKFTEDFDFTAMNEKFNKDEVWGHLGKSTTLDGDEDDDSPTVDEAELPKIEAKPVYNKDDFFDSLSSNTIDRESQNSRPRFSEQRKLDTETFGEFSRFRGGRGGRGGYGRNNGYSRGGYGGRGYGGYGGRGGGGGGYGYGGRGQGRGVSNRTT

T2: 6His-GST-m1URT1 (Arabidopsis thaliana) (UniProt O64642)
T2 sequence: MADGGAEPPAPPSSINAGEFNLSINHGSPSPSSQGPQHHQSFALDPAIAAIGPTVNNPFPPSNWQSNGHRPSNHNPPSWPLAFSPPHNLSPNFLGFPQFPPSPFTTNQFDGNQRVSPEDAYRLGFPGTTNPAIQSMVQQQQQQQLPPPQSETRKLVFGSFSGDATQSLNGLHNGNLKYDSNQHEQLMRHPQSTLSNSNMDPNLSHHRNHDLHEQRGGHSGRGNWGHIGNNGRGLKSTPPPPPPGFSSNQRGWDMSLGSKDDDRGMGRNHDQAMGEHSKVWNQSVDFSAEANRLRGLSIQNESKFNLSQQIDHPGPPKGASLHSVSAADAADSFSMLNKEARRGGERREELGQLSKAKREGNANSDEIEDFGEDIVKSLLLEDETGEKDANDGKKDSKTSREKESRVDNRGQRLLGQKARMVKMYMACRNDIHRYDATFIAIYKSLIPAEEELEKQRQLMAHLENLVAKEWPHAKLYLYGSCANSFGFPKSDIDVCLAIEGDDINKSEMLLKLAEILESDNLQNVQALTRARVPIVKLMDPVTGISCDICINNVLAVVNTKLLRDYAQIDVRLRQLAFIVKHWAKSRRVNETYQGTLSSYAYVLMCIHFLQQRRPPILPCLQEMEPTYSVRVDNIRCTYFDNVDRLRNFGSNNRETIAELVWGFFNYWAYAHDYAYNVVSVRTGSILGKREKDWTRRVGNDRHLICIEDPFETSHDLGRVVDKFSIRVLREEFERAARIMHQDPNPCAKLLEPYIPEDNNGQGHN

B1: URT1 (endogenous) (enzyme, UniProt O64642 1-764)
chain: T2 sequence with N21L, N25L
B2: 6His-MBP-DCP5 (natural protein, Arabidopsis thaliana, UniProt Q9C658 1-611, looked up)
chain: T1 sequence
notes: DECAPPING 5 (DCP5), Arabidopsis thaliana, AT1G26110; amplified from cDNA; source: E. coli BL21 DE3, purified; not shown: 6His, N-terminal, kept; MBP, N-terminal, kept

Assays:
[1] = target: T1, DCP5 tagged with GFP (Arabidopsis thaliana); test: co-IP; DCP5 tagged with GFP, expressed at endogenous levels, as bait; URT1 detected (Supplementary Fig. 2a); conditions not shown
[2] = target: T2, 6His-GST-m1URT1 (Arabidopsis thaliana); test: pull-down; GST pull-down on glutathione sepharose; 10 pmol of each purified protein in 500 µl of 20 mM MOPS pH 7.2, 100 mM KCl, 15% glycerol, 0.1% Tween 20 with 100 ng/µl RNase A, 4 °C; SDS-PAGE, SYPRO Ruby; both purified

Binder | binding [1] | binding [2]
B1 | binds | 
B2 |  | no binding (tested: 10 pmol of each protein in 500 µl)
